Results are given as percent effect.
The record does not define 0% and 100%; most values in the screen are far below 50% and negative numbers occur (in some assays of this library far below -100).
This is an unselected part of the compounds tested.
Two or more numbers in one place are separate tests of the same structure; such repeats can differ widely.
A dash means the value is not listed here; it may have been measured.

Sequences of proteins named here, by UniProt entry; tags and fusion partners are left off.
UniProt P9WPC5, whole entry: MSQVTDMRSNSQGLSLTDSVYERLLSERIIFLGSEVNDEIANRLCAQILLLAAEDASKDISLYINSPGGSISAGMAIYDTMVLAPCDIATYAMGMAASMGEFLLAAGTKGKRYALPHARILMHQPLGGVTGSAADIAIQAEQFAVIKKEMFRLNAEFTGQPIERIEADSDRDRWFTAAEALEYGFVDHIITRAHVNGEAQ
UniProt P9WPC3, whole entry partner: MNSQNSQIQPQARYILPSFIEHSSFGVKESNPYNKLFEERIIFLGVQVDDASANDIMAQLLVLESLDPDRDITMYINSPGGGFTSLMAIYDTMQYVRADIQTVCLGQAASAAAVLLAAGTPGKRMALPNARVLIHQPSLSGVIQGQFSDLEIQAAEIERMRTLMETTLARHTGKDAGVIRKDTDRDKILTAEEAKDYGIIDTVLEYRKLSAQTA
UniProt I6X8D2, whole entry: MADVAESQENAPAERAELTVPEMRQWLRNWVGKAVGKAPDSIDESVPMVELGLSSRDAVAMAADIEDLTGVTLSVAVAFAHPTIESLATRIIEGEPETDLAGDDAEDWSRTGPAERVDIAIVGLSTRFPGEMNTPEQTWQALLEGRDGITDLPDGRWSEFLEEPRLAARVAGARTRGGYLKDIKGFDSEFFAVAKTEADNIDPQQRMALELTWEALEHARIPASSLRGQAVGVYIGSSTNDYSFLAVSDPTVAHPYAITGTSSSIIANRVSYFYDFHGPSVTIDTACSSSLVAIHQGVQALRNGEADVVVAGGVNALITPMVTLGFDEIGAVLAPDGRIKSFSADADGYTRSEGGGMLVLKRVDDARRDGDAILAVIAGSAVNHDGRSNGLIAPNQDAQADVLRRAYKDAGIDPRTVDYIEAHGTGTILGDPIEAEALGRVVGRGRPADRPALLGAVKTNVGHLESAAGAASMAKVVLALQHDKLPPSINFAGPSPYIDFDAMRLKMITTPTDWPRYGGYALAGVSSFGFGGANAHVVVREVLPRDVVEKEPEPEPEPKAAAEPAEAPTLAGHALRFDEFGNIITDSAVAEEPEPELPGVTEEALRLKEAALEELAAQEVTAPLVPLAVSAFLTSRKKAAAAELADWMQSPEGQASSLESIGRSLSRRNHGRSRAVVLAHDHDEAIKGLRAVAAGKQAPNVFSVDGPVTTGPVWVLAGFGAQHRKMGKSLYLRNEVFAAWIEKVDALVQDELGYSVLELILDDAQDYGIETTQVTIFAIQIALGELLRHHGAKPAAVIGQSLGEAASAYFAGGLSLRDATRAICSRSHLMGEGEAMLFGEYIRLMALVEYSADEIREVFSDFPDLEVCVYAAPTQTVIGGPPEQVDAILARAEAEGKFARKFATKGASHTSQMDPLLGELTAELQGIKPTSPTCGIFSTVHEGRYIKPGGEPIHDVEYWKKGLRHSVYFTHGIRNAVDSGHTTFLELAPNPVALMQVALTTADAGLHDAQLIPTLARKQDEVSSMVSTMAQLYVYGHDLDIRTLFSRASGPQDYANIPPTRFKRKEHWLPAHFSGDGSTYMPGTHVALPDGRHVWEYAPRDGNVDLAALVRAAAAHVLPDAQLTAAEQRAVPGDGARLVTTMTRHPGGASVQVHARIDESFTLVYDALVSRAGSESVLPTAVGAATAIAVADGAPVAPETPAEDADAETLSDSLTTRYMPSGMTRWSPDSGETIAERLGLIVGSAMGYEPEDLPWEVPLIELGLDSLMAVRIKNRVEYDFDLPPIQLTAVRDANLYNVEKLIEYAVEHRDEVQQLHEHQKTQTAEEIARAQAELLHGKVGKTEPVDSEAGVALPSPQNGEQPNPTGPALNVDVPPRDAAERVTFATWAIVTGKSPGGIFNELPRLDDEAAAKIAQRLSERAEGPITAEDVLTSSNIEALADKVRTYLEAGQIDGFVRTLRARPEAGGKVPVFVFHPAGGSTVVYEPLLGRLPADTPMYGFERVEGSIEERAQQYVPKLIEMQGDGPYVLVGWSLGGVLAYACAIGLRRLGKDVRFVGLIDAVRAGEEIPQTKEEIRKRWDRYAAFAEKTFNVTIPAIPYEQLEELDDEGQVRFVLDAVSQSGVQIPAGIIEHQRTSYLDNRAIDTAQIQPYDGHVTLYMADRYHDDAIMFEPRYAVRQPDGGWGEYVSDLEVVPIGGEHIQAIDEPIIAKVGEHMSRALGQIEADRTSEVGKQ

A: 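Cell assay of Leishmania donovani living inside macrophages; the read-out is not stated. Compounds at 30 µM. The record gives no direction; compounds that gave an IC50 in retests scored well above the rest, so higher reads as stronger inhibition. Size under these conditions: about 69,000 compounds, about 1,000 of them at 50% or above in at least one test.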
B: 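Assay of Toxoplasma gondii numbers, read through their beta-galactosidase reporter with a colour substrate. Compounds at 10 µM. Higher reads as fewer parasites (inferred from which compounds were picked for retests). About 67,000 compounds were tested under these conditions; 0.38% (about 260) showed 50% or more at least once.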
C: 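ClpP1P2, Mycobacterium tuberculosis (UniProt P9WPC5 and UniProt P9WPC3). Protease assay of ClpP1P2, read by the AMC dye that it sets free. Concentration: 50 µM. Higher reads as stronger inhibition, judged from the few compounds that gave an IC50. Most other retested compounds had strongly negative values. Of about 69,000 compounds tested this way, about 10 (0.015%) reached 50% or more in at least one test.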
D: 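Whole-parasite assay of Trypanosoma brucei over 72 hours; the read-out is not stated. Tested at 30 µM. Direction is inferred from retests: higher values go with stronger inhibition. Values scatter widely below zero; nearly all retest evidence comes from the higher of the two concentrations used. About 64,000 compounds were tested under these conditions; 1.5% (about 940) showed 50% or more at least once.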
E: 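Enzyme assay of the thioesterase domain of polyketide synthase 13; the read-out is not stated. Target: Polyketide synthase Pks13, Mycobacterium tuberculosis (UniProt I6X8D2). Tested at 30 µM. The record gives no direction; the compounds picked for IC50 retests had high values, so higher reads as stronger inhibition. Size under these conditions: about 67,000 compounds, about 300 of them at 50% or above in at least one test.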

| structure | A | B | C | D | E |
|---|---|---|---|---|---|
| `CC(C)c1nc2c(n1C)CCN(CC(=O)Nc1nncs1)C2` | -40.26 | -0.2936 | -25.56 | -19.22 | -23.24 |
| `CC(=O)c1cn(CC(=O)N2CCCC(O)(CO)C2)c2ccccc12` (configuration not stated) | 8.405 | 0.5408 | -1.721 | -46.89 | -37.21 |
| `CN(C)C1CCN(Cc2cnc(S(C)(=O)=O)n2CC2CCCCC2)C1` (configuration not stated) | 30.51 | -16.19 | 0.5616 | -22.51 | -22.41 |
| `CCC1CN(CCNC(C)=O)CCN1CCOC` (configuration not stated) | 2.568 | 2.01 | 16.93 | -23.65 | -11.41 |
| `CCc1cc(N(C)Cc2noc(CC(C)C)n2)ncn1` | 33.77 | -7.005 | 18.71 | -17.7 | -8.402 |
| `CC(C)CS(=O)(=O)N1C[C@H]2C[C@H](C(=O)N3CCN(C)CC3)[C@@H](C1)O2` | - | - | -0.8186 | - | -4.837 |
| `[H][C@]12CN(C(=O)c3cccnc3)C[C@@]1([H])OCCN(S(C)(=O)=O)C2` | 3.746 | 7.287 | - | -38.62 | - |
| `O=C(Cc1ccc2c(c1)CCCC2)Nc1cccnc1N1CCSCC1` | -5.021 | -8.573 | -6.099 | 7.169 | -27.68 |
| `CC(C)N(CC1CCCN(Cc2ccon2)C1)C(=O)OC(C)(C)C` (configuration not stated) | 11.81 | -6.369 | 5.492 | -16.11 | 0.703 |
| `CCn1cnnc1CN(C)c1nccc(C2CCCC2)n1` | 22.6 | 0.9512 | -9.419 | -29.48 | -30.97 |
| `CCS(=O)(=O)N1CCCC2(COCCN(c3nnc(C)o3)C2)C1.O=C(O)C(F)(F)F` (configuration not stated) | 5.854 | 9.826 | - | -4.668 | - |
| `Cc1ccc(S(=O)(=O)NC(=O)CCOCC(C)C)s1` | -5.686 | -6.761 | 6.071 | -12.17 | -11.96 |
| `Cc1cc(CN2CCCN(c3ccc(C#N)cc3)CC2)no1` | -4.678 | -4.053 | -5.767 | -22.18 | 18.04 |
| `COCC(=O)NC[C@H]1C[C@@H]2CCN1C[C@@H]2CN1CCc2ccccc21` | - | - | -3.304 | - | -22.83 |
| `CN1CCN(C2CCN(CCOc3ccc(F)cc3)CC2)C1=O` | 19.59 | 0.3176 | 3.182 | -23.85 | -22.11 |
| `O=C1CC(c2ccc(C(=O)O)cc2)c2ncn(-c3cccc(Cl)c3)c2N1` (configuration not stated) | 24.74 | -2.87 | 3.668 | -14.98 | -23.51 |
| `Cc1cccc(CO[C@@H]2CC[C@H]3[C@H]2OCCN3Cc2cc(C)on2)n1` | - | - | -2.997 | - | -22.46 |
| `CCN1CCCC(C)(C(=O)NCc2nnnn2-c2ccccc2)C1` (configuration not stated) | 16.15 | 1.666 | 13.18 | -1.547 | -7.516 |
| `CO[C@H]1CCN(Cc2nccs2)C[C@@H]1Cc1ccccc1` | 12.32 | -9.207 | -6.538 | 0.8468 | -25.1 |
| `O=C1CC(c2ccc(C(F)(F)F)cc2)c2c(n3ccsc3nc2=O)N1` (configuration not stated) | -12.86 | -7.805 | 0.06747 | -29.12 | -24.96 |
| `Cc1ccc2cc(C(=O)N3CCC(Nc4cccnn4)CC3)[nH]c2c1` | 0.9051 | -22.2 | -11.53 | -27.94 | -16.16 |
| `CN(C)c1ncc2c(O)nc(C3CCCNC3)cc2n1` (configuration not stated) | 14.72 | 7.001 | -12.51 | -4.761 | 13.71 |
| `O=C(O)C(F)(F)F.O=C(O)C(F)(F)F.O=C(O)C(F)(F)F.[H][C@@]12CCN(Cc3ccccn3)C[C@]1(C(=O)NCc1ccccn1)CCO2` | 27.07 | -47.26 | - | -62.1 | - |
| `COC(=O)c1ccnn1COc1ccc(Cl)cc1` | -30.4 | 14.31 | -6.737 | -36.44 | -11.39 |
| `Cc1cccc(NC(=O)C2CSCN2C(=O)c2cnccn2)c1C` (configuration not stated) | 9.507 | 6.729 | -15.37 | -2.987 | -17.59 |
| `CNS(=O)(=O)c1ccccc1N1CCN(C(=O)C(C)C)CC1` | 3.451 | 5.133 | -0.4716 | 1.107 | -26.54 |
| `O=C(CNCCn1cccn1)NCC1(c2ccccc2)CCCC1` | 39.27 | 0.958 | -47.39 | - | -17.81 |
| `O=C(NCC1CC1)[C@@H]1CCO[C@@H]2CCN(Cc3ccco3)C[C@H]21` | - | - | 0.5394 | - | -11.16 |
| `COCC[C@]1(O)CCN(Cc2nc(C)cs2)C[C@H]1C` | 7.394 | -3.29 | 3.288 | -17.55 | -70.04 |
| `Nc1ccc(C(=O)N2CCC(Oc3cccc(C(F)(F)F)c3)CC2)cn1` | 30.21 | 4.619 | -11.08 | 54.87 | 15.96 |
| `COc1ccccc1CN1CCC2(CC1)CC(Oc1ccccn1)CO2` (configuration not stated) | 31.72 | -4.271 | 10.84 | 10.75 | -25.93 |
| `CN1CCCN(C(=O)c2nnn(-c3ccc(C(F)(F)F)cc3)n2)CC1` | -53.49 and -5.84 | 10.81 | 0.1371 | 15.33 | - |
| `CS(=O)(=O)NCc1ncn2c1CN(C(=O)CC1CCCC1)CCC2` | -14.53 | -11.95 | -11.77 | 8.227 | -1.827 |
| `O=C(O)C(F)(F)F.[H][C@@]12CCN(S(=O)(=O)C3CC3)[C@@]1([H])CCN2C(=O)c1ccccn1` | -19.21 | 11.66 | - | -206.7 | - |
| `Cc1nc(CN2C[C@@H]3CN(C(=O)c4cccn4C)C[C@@H]3C2)cs1` | - | - | 5.165 | - | -21.9 |
| `O=C(O)C(F)(F)F.[H][C@@]12CN(C(=O)c3ccc(C)nc3)C[C@]1([H])OCCN2CCN1CCCC1` | -5.046 | -2.098 | - | - | - |
| `COCCCS(=O)(=O)N1CCN(c2cccc(O)c2)CC1` | 25.51 | 0.4072 | 1.524 | 3.798 | 2.899 |
| `COCCN1CCC2(CC1)C(=O)Nc1ccc(C(=O)NC(C)C)cc12.O=C(O)C(F)(F)F` | 5.967 | 7.352 | - | -26.29 | - |
| `COc1cc(CNCCn2cccn2)c2c(c1)CC(C)O2` (configuration not stated) | 5.777 | -1.517 | -13.17 | 1.023 | 5.847 |
| `O=C(c1ccoc1)N1CC[C@H]2OCC[C@@]2(COc2ncccc2F)C1` | - | - | -4.722 | - | -10.35 |
| `[H][C@@]12CS(=O)(=O)C[C@]1([H])N(C(=O)c1ccnn1CCC)CCN2C(=O)C1CC1` | 0.2193 | 7.005 | - | -54.07 | - |
| `COC(=O)c1oc(CNC(C)(C)c2ccc3c(c2)OCCO3)cc1C` | -0.6808 | 4.779 | -1.751 | 0.9121 | -16.17 |
| `CC1CN(c2ncnc3sccc23)CCN1c1nccs1` (configuration not stated) | -9.971 | 7.81 | -9.63 | -24.6 | -2.237 |
| `CN1CCN(CCOc2ccc(NC(=O)c3cnc[nH]3)cc2)CC1` | 5.696 | 4.36 | -1.632 | -44.84 | -4.385 |
| `CC(C)CC(CNC(=O)c1cccnc1Oc1cccnc1)N(C)C` (configuration not stated) | 18.53 | 2.778 | 12.12 | -59.53 | -13.29 |
| `Cc1ccccc1N1CCN(C(=O)c2cccnc2-n2cncn2)CC1` | 39.29 | -4.172 | 3.066 | -34.71 | -18.96 |
| `CCc1nc(CN2CCCN(Cc3cnn(C)c3)CC2)no1` | 36.98 | 2.299 | 4.816 | -59.47 | -4.439 |
| `CN1CCCC1CCNC(=O)c1ccccc1-n1cnc(CN)c1` (configuration not stated) | -25.04 | 4.747 | -3.962 | -11.56 | -10.67 |
| `CC(NC(=O)Nc1cc(F)cc(F)c1)c1nc[nH]n1` (configuration not stated) | 7.394 | 1.217 | 3.819 | -33.11 | -18.5 |
| `CC(C)Oc1ccc(CN2CCC(c3n[nH]c4ncccc34)CC2)cc1` | 1.844 | -12.04 | -3.314 | 49.77 | -6.791 |
| `Cn1cc(N2CC3(CCN(Cc4cccs4)CC3)OCC2=O)cn1.O=C(O)C(F)(F)F` | 26.21 | 4.899 | - | -0.5561 | - |
| `Cc1cc2[nH]c(CN3CCOC(c4ccc(F)cc4)C3)cc(=O)n2n1` (configuration not stated) | -5.173 | 6.3 | -3.178 | -10.32 | -22.12 |
| `O=C(O)C(F)(F)F.[H][C@@]12OCCN(CCOCc3ccccc3)[C@@]1([H])CC[C@H]2OC` | 49.48 | 25.12 | - | -22 | - |
| `CCCn1nccc1C(=O)N1CCN(C(=O)C2CC2)[C@@H]2CS(=O)(=O)C[C@@H]21` | - | - | 8.118 | - | - |
| `CC(=O)N1CCC(C(=O)NCc2cc[nH]n2)(c2ccccc2)CC1` | 19.06 | -30.66 | -29.6 | -3.285 | -15.52 |
| `CNCc1nc(-c2ccc3c(c2)OCO3)c[nH]1.Cl.Cl` | 1.529 | 0.1608 | - | -10.75 | - |
| `Cc1cc(-c2cnc(N3CCCC(C)C3)nc2C(C)C)on1` (configuration not stated) | -10.47 | -16.28 | -9.545 | -16.22 | -9.931 |
| `Cc1cc(C[C@@H]2COC[C@H]2NCc2ccc(C(C)C)cc2)on1.O=C(O)CC(O)(CC(=O)O)C(=O)O` | 3.522 | -2.25 | - | 16.26 | - |
| `O=C(c1ccno1)N1CCCC(c2ncncc2-c2ccncc2)C1` (configuration not stated) | 12.43 | 7.107 | -11.72 | 11 | 2.256 |
| `Cc1cc(C(=O)NCC2CCS(=O)(=O)C2)ccc1NC(=O)c1ccco1` (configuration not stated) | -23.92 | 15.43 | -11.17 | -36.05 | -6.851 |

The last 7 entries again:

structure,A,B,C,D,E
CCCn1nccc1C(=O)N1CCN(C(=O)C2CC2)[C@@H]2CS(=O)(=O)C[C@@H]21,-,-,8.118,-,-
CC(=O)N1CCC(C(=O)NCc2cc[nH]n2)(c2ccccc2)CC1,19.06,-30.66,-29.6,-3.285,-15.52
CNCc1nc(-c2ccc3c(c2)OCO3)c[nH]1.Cl.Cl,1.529,0.1608,-,-10.75,-
Cc1cc(-c2cnc(N3CCCC(C)C3)nc2C(C)C)on1 (configuration not stated),-10.47,-16.28,-9.545,-16.22,-9.931
Cc1cc(C[C@@H]2COC[C@H]2NCc2ccc(C(C)C)cc2)on1.O=C(O)CC(O)(CC(=O)O)C(=O)O,3.522,-2.25,-,16.26,-
O=C(c1ccno1)N1CCCC(c2ncncc2-c2ccncc2)C1 (configuration not stated),12.43,7.107,-11.72,11,2.256
Cc1cc(C(=O)NCC2CCS(=O)(=O)C2)ccc1NC(=O)c1ccco1 (configuration not stated),-23.92,15.43,-11.17,-36.05,-6.851

Data taken from ChEMBL document CHEMBL3988442, “University of Dundee, Small-Polar-MMV Screening Library” (2021).